Test results: PubChem BioAssay AID1332 (Southern Research Institute, 2008)
Converted amounts (≈) assume the structure as drawn. This is one part of the list. The main result of the screen is listed elsewhere. These columns were measured beside it and carry no call.

Experiment: Mycobacterium tuberculosis H37Rv growth inhibition, confirmatory dose response, cytotoxicity (AID 1332);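 as to CC50: Vero cells exposed to compounds for 72 hours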;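 as to IC50: bacteria incubated 7 days before adding Alamar blue readout reagent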
Conditions: M. tuberculosis H37Rv growth inhibition; CC50: measured here: Vero cell cytotoxicity; IC50: measured here: IC50 H37Rv replicates

| Compound | IC50 [µg/mL] | CC50 [µg/mL] |
| --- | --- | --- |
| CCN(CCCc1ccccc1)CCCc1ccccc1 | > 20 | – |
| CN[C@@H]1[C@@H](O)[C@@H](O[C@@H]2[C@@H](O)[C@H](O[C@H]3O[C@H]([C@@H](C)N)CC[C@H]3N)[C@@H](N)C[C@H]2N)OC[C@]1(C)O | 0.508 (≈ 1.1 µM) | – |
| CCN(CC)C(=O)N1CCN(C)CC1 | > 20 | – |
| Nc1ccc(N=Nc2ccccc2)c(N)n1 | > 20 | – |
| O=C(CCCCC(=O)Nc1c(I)cc(I)c(C(=O)O)c1I)Nc1c(I)cc(I)c(C(=O)O)c1I | > 20 | – |
| CCCCOC(=O)c1ccc(O)cc1 | > 16.4 | – |
| CC1=CC(=O)c2ccccc2C1=O | 3.7 (≈ 21.5 µM) | > 6 |
| N=C(N)N1CCc2ccccc2C1 | > 20 | – |
| CC(=O)Nc1ccc(OCC(O)CNC(C)C)cc1 (stereo not drawn) | > 20 | – |
| O=C(Nc1ccccc1)OCC(CN1CCCCC1)OC(=O)Nc1ccccc1 (stereo not drawn) | > 20 | – |
| Nc1ncn(C2O[C@H](CO)[C@H](O)[C@@H]2O)c(=O)n1 (stereo partly drawn) | > 20 | 2.91 (≈ 11.9 µM) |
| NCC1(CC(=O)O)CCCCC1 | > 20 | – |
| Oc1cc(O)c2c(c1)OC(c1ccc(O)c(O)c1)C(O)C2 (stereo not drawn) | > 20 | – |
| Cc1cccc(C)c1NC(=O)CN1CCN(CCCC(c2ccc(F)cc2)c2ccc(F)cc2)CC1 | 3.73 (≈ 7.59 µM) | – |
| CCN1C[C@]2(C)CC[C@H](O)[C@]34C1[C@H](C[C@H]23)[C@@]1(O)C[C@H](OC)[C@H]2C[C@@H]4[C@@H]1C2O (stereo partly drawn) | > 20 | – |
| CC(=O)O[C@]1(C(C)=O)CC[C@H]2[C@@H]3C=C(C)C4=CC(=O)CC[C@]4(C)[C@H]3CC[C@@]21C | > 20 | – |
| O=C1C(O)=C(O)C(=O)C(O)=C1O | > 20 | – |
| Cc1nccn1CC1CCc2c(c3ccccc3n2C)C1=O (stereo not drawn) | > 20 | – |
| NC(=O)c1cc[n+](CC2=C(C(=O)[O-])N3C(=O)[C@@H](NC(=O)Cc4cccs4)[C@H]3SC2)cc1 | > 20 | – |
| COc1ccc2c(c1)c(CC(=O)OCC(=O)O)c(C)n2C(=O)c1ccc(Cl)cc1 | > 20 | – |

3 compounds already listed, ordered by molar mass, ascending:

| Compound | IC50 [µg/mL] | CC50 [µg/mL] |
| --- | --- | --- |
| CC1=CC(=O)c2ccccc2C1=O | 3.7 (≈ 21.5 µM) | > 6 |
| CCCCOC(=O)c1ccc(O)cc1 | > 16.4 | – |
| Cc1nccn1CC1CCc2c(c3ccccc3n2C)C1=O (stereo not drawn) | > 20 | – |

Two records drawn at random from the list so far:

| Compound | IC50 [µg/mL] | CC50 [µg/mL] |
| --- | --- | --- |
| N=C(N)N1CCc2ccccc2C1 | > 20 | – |
| Oc1cc(O)c2c(c1)OC(c1ccc(O)c(O)c1)C(O)C2 (stereo not drawn) | > 20 | – |

Next compounds

| Compound | IC50 [µg/mL] | CC50 [µg/mL] |
| --- | --- | --- |
| CC(C)(C)C(=O)OCOC(=O)[C@@H]1N2C(=O)[C@@H](N=CN3CCCCCC3)[C@H]2SC1(C)C | > 20 | – |
| CC(C)C[C@H]1C(=O)N2CCC[C@H]2[C@]2(O)O[C@](NC(=O)[C@@H]3C=C4c5cccc6[nH]cc(c56)C[C@H]4N(C)C3)(C(C)C)C(=O)N12 | > 20 | – |
| O=C(CCCN1CCC2(CC1)C(=O)NCN2c1ccccc1)c1ccc(F)cc1 | > 20 | > 6 |
| O=[N+]([O-])O[C@H]1CO[C@H]2[C@@H]1OC[C@H]2O[N+](=O)[O-] | > 20 | – |
| CC1=C(C(=O)O)N2C(=O)[C@@H](NC(=O)[C@H](N)c3ccccc3)[C@H]2SC1 | > 20 | – |
| C/C=C1/C[C@@H](C)[C@](O)(CO)C(=O)OCC2=CCN3CC[C@@H](OC1=O)[C@@H]23 | > 20 | – |
| COc1cc2ccc(=O)oc2cc1O | > 20 | – |
| C=N[C@@H](C(=O)N[C@@H]1C(=O)N2[C@@H]1SC(C)(C)[C@@H]2C(=O)O)c1ccccc1 | > 20 | – |
| C[C@]12CC[C@H]3[C@@H](CCC4=CC(=O)CC[C@@]43C)[C@@H]1CC[C@@H]2C(=O)CO | > 20 | – |
| O=c1[nH]oc2c1CCNC2 | > 20 | – |
| Cc1cccc(Nc2ccncc2S(=O)(=O)NC(=O)NC(C)C)c1 | > 20 | – |
| CC(=O)CC(c1ccc([N+](=O)[O-])cc1)c1c(O)c2ccccc2oc1=O (stereo not drawn) | > 20 | – |
| CCCCCCCCNC(C)C(O)c1ccc(SC(C)C)cc1 (stereo not drawn) | 2.07 (≈ 6.13 µM) | 4.22 (≈ 12.5 µM) |
| CC[N+]1(C)[C@@H]2CC[C@H]1CC(OC(=O)[C@H]1CCC(C(=O)OC3C[C@H]4CC[C@@H](C3)[N+]4(C)CC)(c3ccccc3)c3ccccc31)C2 (stereo partly drawn) | > 20 | – |
| COc1ccc2nc(S(=O)Cc3ncc(C)c(OC)c3C)[nH]c2c1 (stereo not drawn) | > 20 | – |
| COc1ccc2c3c1O[C@H]1C[C@@H](O)C=C[C@@]31CCN(C)C2 | > 20 | – |
| CC1(C)S[C@@H]2[C@H](NC(=O)COc3ccccc3)C(=O)N2[C@H]1C(=O)O | > 20 | – |
| Cc1nnc(SCC2=C(C(=O)O)N3C(=O)[C@@H](NC(=O)Cn4cnnn4)[C@H]3SC2)s1 | > 20 | – |
| COc1c2ccoc2nc2c(OC)c(OC[C@@H](O)C(C)(C)O)ccc12 | > 20 | – |
| NC(=O)OCC(O)COc1ccc(Cl)cc1 (stereo not drawn) | > 20 | – |
| CN1C(C(=O)Nc2ccccn2)=C(O)c2ccccc2S1(=O)=O | > 20 | – |

| Compound | IC50 [µg/mL] | CC50 [µg/mL] |
| --- | --- | --- |
| COCCOC(=O)C1=C(C)NC(C)=C(C(=O)OC(C)C)C1c1cccc([N+](=O)[O-])c1 (stereo not drawn) | > 20 | – |
| CC[C@@H](CO)NC(=O)[C@@H]1C=C2c3cccc4[nH]cc(c34)C[C@H]2N(C)C1 | > 20 | – |
| Cc1ccc(C)c(OCCCC(C)(C)C(=O)O)c1 | > 20 | – |
| CNCCC=C1c2ccccc2C=Cc2ccccc21 | 7.8 (≈ 29.9 µM) | > 6 |
| CC(C[N+](C)(C)C)OC(N)=O (stereo not drawn) | > 20 | – |
| COc1ccc2c(c1OC)C(=O)O[C@@H]2[C@H]1c2cc3c(cc2CCN1C)OCO3 | > 20 | – |
| COc1ccc2c(c1)C(=O)N(CCc1ccc(S(=O)(=O)NC(=O)NC3CCCCC3)cc1)C(=O)C2(C)C | > 20 | – |
| CN(C)CCN(Cc1ccc(Cl)cc1)c1ccccn1 | > 20 | – |
| COc1ccc([C@@H]2Sc3ccccc3N(CCN(C)C)C(=O)[C@@H]2OC(C)=O)cc1 | > 20 | – |
| C[C@@H]1C[C@@H]([C@H](O)CC2CC(=O)NC(=O)C2)C(=O)[C@@H](C)C1 | > 20 | 0.108 (≈ 0.384 µM) |
| Cc1c(NC(C)C)c(=O)n(-c2ccccc2)n1C | > 20 | – |
| C=CC[N@@+]12CC[C@]34c5ccccc5N5/C=C6\C7N(/C=C(\C53)[C@@H](C[C@@H]41)/C(=C/CO)C2)c1ccccc1[C@@]71CC[N@@+]2(CC=C)C/C(=C\CO)[C@@H]6C[C@@H]12 (stereo partly drawn) | > 20 | – |
| Nc1nc2c(ncn2COC(CO)CO)c(=O)[nH]1 | > 20 | – |
| CC(NC(C)(C)C)C(=O)c1cccc(Cl)c1 (stereo not drawn) | > 20 | – |
| NCCCCCC(=O)O | > 20 | – |
| CCCNC(=O)NS(=O)(=O)c1ccc(Cl)cc1 | > 20 | – |
| CCN(CC)C(C)CN1c2ccccc2Sc2ccccc21 (stereo not drawn) | > 20 | – |
| CN(C)[C@@H]1C(=O)C(C(N)=O)=C(O)[C@@]2(O)C(=O)C3=C(O)c4c(O)cccc4[C@@](C)(O)[C@H]3C[C@@H]12 | 2.71 (≈ 6.09 µM) | – |
| Clc1cccc(Cl)c1NC1=NCCN1 | > 20 | – |
| Cc1cc2nc3c(=O)[nH]c(=O)nc-3n(C[C@H](O)[C@H](O)[C@H](O)CO)c2cc1C | > 20 | – |
